Results published in patent US4966169A, “Process for manufacturing cigarettes” (priority 1988, dated 1990).

Experiment: Transfer of cyclohexanol from tobacco into smoke (standard smoking machine, Cambridge filter pads, GC)
[1] = hand-laced, 8750 micrograms per cigarette
[2] = production run, 620 micrograms per cigarette

**Q.** With OC1CCCCC1 [Cyclohexanol] as the compound, how does the smoked concentration [1] read?
**A.** 2778 milligrams per cubic meter

**Q.** What about the “smoked concentration as % of TLV” value [1] of the same compound?
**A.** 1389%

**Q.** What about the “factor by which delivery exceeded total concentrations of TSNA's in the cigarette” value [2] of the same compound?
**A.** 132

**Q.** What about the “smoked concentration as % of TLV” value [2] of the same compound?
**A.** 99%
